Drawing on patent US20230151091A1 (NEW YORK UNIVERSITY, published 2023), this text covers binding for four molecules.

For assay [1], the target named is T1, human MuSK (human, UniProt O15146 24-495).
T1 construct: Recombinant protein coated on ELISA plates (R&D Systems cat. 10189-MK) or on the Biacore chip; also called human muscle-specific tyrosine protein kinase; full length human MuSK
T1 sequence: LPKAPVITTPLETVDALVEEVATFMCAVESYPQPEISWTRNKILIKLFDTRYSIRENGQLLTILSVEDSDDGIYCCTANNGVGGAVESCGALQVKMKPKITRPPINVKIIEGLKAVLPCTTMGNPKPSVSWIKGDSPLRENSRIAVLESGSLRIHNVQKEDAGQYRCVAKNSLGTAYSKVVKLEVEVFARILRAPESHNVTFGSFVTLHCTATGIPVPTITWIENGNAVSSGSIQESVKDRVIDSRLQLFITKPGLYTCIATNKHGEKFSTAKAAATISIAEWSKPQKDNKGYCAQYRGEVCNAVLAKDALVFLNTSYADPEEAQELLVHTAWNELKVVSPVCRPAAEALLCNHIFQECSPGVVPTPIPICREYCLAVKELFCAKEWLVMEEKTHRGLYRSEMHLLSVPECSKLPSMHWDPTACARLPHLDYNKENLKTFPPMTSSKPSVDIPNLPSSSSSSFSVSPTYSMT
Put plainly: ELISA, coated MuSK 0.2 ug/ml.

In assay [2] the target is T1, human MuSK. The assay can be described thus: ELISA, plate coated with human MuSK at 0.2 µg/ml, dilution series of mAb, goat anti human Fc-HRP and TMB, OD 620 nm (8 min). How it is done: (§1) An ELISA plate was coated with human MuSK (R&D Systems, cat. 10189-MK) or mouse MuSK (in house produced in HEK293 cells) at 0.2 μg/ml. After washing and blocking the plate, a dilution series of the anti-MuSK antibodies was applied and allowed to bind for 2 hours at room temperature. […] OD at 620 nm was measured with a 96 well ELISA plate reader.
(ELISA stands for enzyme-linked immunosorbent assay.)

Assay [3] deals with T1, human MuSK. The assay can be described thus: Biacore T200, Fab, dissociation pH 7.4 and pH 5.5. For orientation: Surface plasmon resonance follows binding to a sensor surface in real time, without labels.
Assay [4] has as its target T2, mouse MuSK (mouse, UniProt Q61006 22-494, limits assumed).
T2 construct: Coated on ELISA plates or on the Biacore chip; also called full length mouse MuSK; mouse MuSK (in house produced in HEK293 cells)
T2 sequence (looked up): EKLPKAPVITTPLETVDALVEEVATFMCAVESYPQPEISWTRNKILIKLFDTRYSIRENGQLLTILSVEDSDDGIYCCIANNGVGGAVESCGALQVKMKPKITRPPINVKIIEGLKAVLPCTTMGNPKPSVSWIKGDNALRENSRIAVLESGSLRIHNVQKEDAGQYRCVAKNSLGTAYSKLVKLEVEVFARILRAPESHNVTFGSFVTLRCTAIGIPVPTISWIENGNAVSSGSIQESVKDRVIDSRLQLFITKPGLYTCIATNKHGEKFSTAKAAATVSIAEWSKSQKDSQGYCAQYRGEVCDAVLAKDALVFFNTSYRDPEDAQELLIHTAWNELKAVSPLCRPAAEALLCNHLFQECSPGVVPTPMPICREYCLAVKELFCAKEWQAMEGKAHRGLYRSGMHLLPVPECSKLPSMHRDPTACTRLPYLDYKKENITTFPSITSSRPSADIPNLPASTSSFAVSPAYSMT
The assay can be described thus: ELISA, coated MuSK 0.2 ug/ml.

The target in assay [5] is T2, mouse MuSK. Put plainly: ELISA, plate coated with mouse MuSK at 0.2 µg/ml, dilution series of mAb, goat anti human Fc-HRP and TMB, OD 620 nm (8 min). How it is done:
as §1

These are yes or no findings as the source states them, for the method shown. Some entries that bind do so weakly or less than the wild type.

B1: 14D10 (antibody, V domains shown)
VH: ELQLVESGGGLVQPGGSLRLSCAASGFTFDDYGMSWVRQAPGKGLEWVSAIPWNGGSTYYKESVKGRFTISRDNAKKTLYLQMNSLKSEDTAVYYCAKRSGRIAFGALDAWGQGTLVTVSS
VL: QAVVTQEPSLSVSPGGTVTLTCGLSSGSVTSSNYPDWYQQTPGQAPRTLIYTTNSRHSGVPSRFSGSISGNKAALTITGAQPEDEADYYCALYMGGGSNVYVFG
notes: human IgG1 with the LALA mutations (L234A, L235A); produced in HEK293 cells
Regarding B1, the binding entry in assay [1] and in assay [2] was “binds” throughout.

B2: 3B2g2m1 Fab (Fab, V domains shown)
VH: EVQLLESGGGLVQPGGSLRLSCAASGFTFSDYGMSWVRQAPGKGLEWVSAIPWSGGSTYYKESVKGRFTISRDNSKNTLYLQMNSLRAEDTAVYYCAKRSGRIAFGALDAWGQGTLVTVSS
VL: QTVVTQEPSFSVSPGGTVTLTCGLSSGSVTSSNYPDWYQQTPGQAPRTLIYSTDSRHSGVPDRFSGSILGNKAALTITGAQADDESDYYCGLYSYSGSKNYVFGGGTKLTVL
notes: Fab format
Consider B2, for which the binding entry in assay [3] is listed as “binds”.

B3: 16F11 (antibody, V domains shown)
VH: EVQLVESGGGLVQPGGSLSLSCVASGFTFSLYYMNWVRQAPGKGLEWLSVIDTHSIAYYADSVKGRFTISRDNVKNTLYLQLNNLKPEDTALYYCVLGRTALVRWGQGTQVTVSS
VL: DIVMTQSPSSVTASVGEKVTINCKSSQSVVFGSNQKSYLNWYQQRPGQSPRLLIYYASTQESGIPDRFSGSGSTTDFTLTISSVQPEDAAVYYCQQAYSAPTFGSGTRLEIK
notes: as for B1
As for B3, the binding result in assay [1], in assay [4], in assay [2] and in assay [5] was “binds” each time.

B4: 17H10 (antibody, V domains shown)
VH: QVQVQESGPGLVKPSQTLSLTCTVSGGSITARYYSWSWIRQPPGKGLEWMGVIAYDGSTYYSPSLKSRTSISRDTSKNQFSLHLSSVTPDDTAVYYCARGSSRVAAAFDSWGQGTQVTVSS
VL: SYELTQSPSVSVALRQTAKITCGGNRIGGKSVQWYQQKPGQAPMLVIYADSRRPSGIPERFTGSNSGNTATLTITGAQAEDEADYYCHVWGSTASADFGGGTHLTVL
notes: as for B1
As to B4, the binding result in assay [1] and in assay [2] was “binds” each time.
